Data as given in PubChem BioAssay AID1259254 (NCATS, 2017).

- Test: 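Genome-wide screen for genes that prevent DNA re-replication in cancer cells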 (primary screen)
- Cell system: human HCT116 colorectal cancer cells
- Knock-down reagent: single siRNA against human genes
- Time to read-out: 3 days
- Read-out: 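Imaged Hoechst DNA stain sorts each cell into a cycle phase by DNA amount; per plate, G2 fraction set to 0% for non-targeting and 100% for GMNN siRNA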
- Direction: G2 robust z-score: higher = more G2 cells, more excess DNA replication
- Active means: 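An siRNA counts as active if its G2 robust z-score lies at least 5 MADs above the screen median; here such calls match roughly 38% of GMNN control or more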
Shown is one part, drawn at random, of about 59,000 reagents. About 1,550 of all reagents (2.6%) count as active. 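G2 share is only a proxy for re-replication; each gene was hit by three separate siRNAs, and active genes were retested.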 Entries without a mark were called inactive. The numbers tell different reagents against one gene apart. Not all columns of the deposit are shown. Not given: the amount of reagent.

G2 robust z-score, by gene and reagent
JPT2: #1 -0.926; #2 -0.74; #3 0.15
ZNF566: #1 -0.0884; #2 -0.245; #3 0.645
DYNC1LI1: #1 0.352; #2 -1.08; #3 -0.642
ABHD1: #1 -0.714; #2 0.902; #3 3.14
HEXB: #1 -0.022; #2 -0.364; #3 0.884
PTAR1: #1 0.957; #2 1.76; #3 0.157
PRRX2: #1 0.159; #2 0.57; #3 3.81
PYDC2: #1 -0.41; #2 0.303; #3 1.14
FUT4: #1 0.195; #2 -1.25; #3 -0.686
SALL4: #1 3.79; #2 -1.26; #3 0.839
ABCF3: #1 0.611; #2 -0.457; #3 -0.584
ZC2HC1B: #1 0.948; #2 -0.804; #3 0.0733
DNASE2: #1 0.332; #2 0.0789; #3 3.01
MYBL2: #1 2.42; #2 -0.532; #3 0.229
ARHGAP27P1: #1 -0.503; #2 1.51; #3 0.0322
PROS1: #1 1.03; #2 -0.618; #3 -0.688

Reformatted: entries from further up
DYNC1LI1 #3: G2 robust z-score = -0.642
ABHD1 #1: G2 robust z-score = -0.714
ABHD1 #2: G2 robust z-score = 0.902
ABHD1 #3: G2 robust z-score = 3.14
HEXB #1: G2 robust z-score = -0.022
HEXB #2: G2 robust z-score = -0.364
HEXB #3: G2 robust z-score = 0.884
PTAR1 #1: G2 robust z-score = 0.957
PTAR1 #2: G2 robust z-score = 1.76
PTAR1 #3: G2 robust z-score = 0.157

The results go on.
G2 robust z-score, by gene and reagent
LONRF2: #1 2.42; #2 0.0128; #3 -0.656
BUB1B: #1 5.8 (active); #2 3.26; #3 1.76
SETD1A: #1 -0.513; #2 0.58; #3 -1.35
CD52: #1 -0.76; #2 0.112; #3 0.208
PCDHB5: #1 2.13; #2 4.96; #3 -0.467
ZNG1A: #1 -0.469; #2 0.72; #3 -1.01
KRTAP9-3: #1 0.741; #2 0.864; #3 1.92
LILRA2: #1 -0.397; #2 -0.451; #3 1.57
MSLN: #1 -1.08; #2 4.83; #3 -0.0951
NIPSNAP3A: #1 4.96; #2 1.77; #3 0.126
LINC02538: #1 -0.967; #2 -0.685; #3 9.2 (active)
EMC6: #1 -0.715; #2 0.845; #3 0.252
ENDOD1: #1 0.485; #2 -1.42; #3 -0.0969
